Experimental data published in PubChem BioAssay AID248 (DTP/NCI, 2004).
The list shows only some results of the screen, not a fair sample: it is rich in T/C values a quarter to a half above the control, in often repeated tests (any T/C) and in doses without a T/C. Further doses and runs are listed elsewhere. T/C gives the treated animals as a percentage of the vehicle group. Some doses have a count of surviving animals in place of a T/C: the source holds a T/C of zero for them, seemingly a mark for toxic or unscored doses. Some doses without a T/C left all or most animals alive at the check, yet need not have been tolerated: survival well below the control is almost never listed, so the zero probably covers shortened survival too. Counts of survivors are from the toxicity check (mostly the fifth day) where no day follows; animals may have died later. Schedule codes are those of the source, read here as Q, the interval in days (D) or hours (H), X, the number of doses. Where survival is the endpoint, this PubChem deposit counts one and a half times the control or more as active, and values a quarter to a half above the control carry no call in these data; other NCI protocols may use other cut-offs. Some entries hold several experiments; their values stand side by side, smallest first. Some T/C values carry the count of animals alive at the toxicity check (mostly the fifth day); where none is given, no animal had died by that day.

Test system: L1210 leukemia ip in BDF1 mice, survival T/C
Assay: NCI In Vivo Anticancer Drug Screen. Data for tumor model L1210 Leukemia (intraperitoneal) in B6D2F1 (BDF1) mice
Settings: T/C endpoint: mean survival time, higher T/C = longer survival
[1] = dose: 100.0 mg/kg/injection, schedule: Q01DX001 (ip), vehicle: saline
[2] = dose: 200.0 mg/kg/injection, schedule: Q01DX001 (ip), vehicle: saline
[3] = dose: 400.0 mg/kg/injection, schedule: Q01DX001 (ip), vehicle: saline
[4] = dose: 100.0 mg/kg/injection, schedule: Q04DX003 (ip), vehicle: saline with Tween-80
[5] = dose: 200.0 mg/kg/injection, schedule: Q04DX003 (ip), vehicle: saline with Tween-80
[6] = dose: 400.0 mg/kg/injection, schedule: Q04DX003 (ip), vehicle: saline with Tween-80
[7] = dose: 200.0 mg/kg/injection, schedule: Q01DX005 (ip), vehicle: saline
[8] = dose: 400.0 mg/kg/injection, schedule: Q01DX009 (ip), vehicle: Klucel (hydroxypropylcellulose) (HPC)
[9] = dose: 200.0 mg/kg/injection, schedule: Q04DX003 (ip), vehicle: Klucel (hydroxypropylcellulose) (HPC)
[10] = dose: 400.0 mg/kg/injection, schedule: Q04DX003 (ip), vehicle: Klucel (hydroxypropylcellulose) (HPC)

## CC[C@@]1(O)C[C@H](OC2CC(N(C)C)C(OC3CC(O)C(OC4CCC(=O)C(C)O4)C(C)O3)C(C)O2)c2c(cc3c(c2O)C(=O)c2c(O)ccc(O)c2C3=O)[C@H]1C(=O)OC (stereo partly specified)
dose: 0.5 mg/kg/injection, schedule: Q01DX009 (ip), vehicle: saline
  T/C: 125 % of control
dose: 1.08 mg/kg/injection, schedule: Q01DX009 (ip), vehicle: water
  T/C: 134 % of control
dose: 1.5 mg/kg/injection, schedule: Q01DX009 (ip), vehicle: saline
  T/C: 138 % of control
dose: 1.8 mg/kg/injection, schedule: Q01DX009 (ip), vehicle: water
  T/C: 138 % of control [7 of 8 alive]
dose: 2.0 mg/kg/injection, schedule: Q01DX003 (ip), vehicle: saline
  T/C: 136 % of control
dose: 2.0 mg/kg/injection, schedule: Q01DX009 (ip), vehicle: saline
  T/C: 125 and 126 % of control
dose: 2.88 mg/kg/injection, schedule: Q04DX003 (ip), vehicle: water
  T/C: 133 % of control
dose: 3.0 mg/kg/injection, schedule: Q01DX009 (ip), vehicle: saline
  T/C: 125 % of control
dose: 3.0 mg/kg/injection, schedule: Q04DX003 (ip), vehicle: saline
  T/C: 127 % of control
dose: 4.0 mg/kg/injection, schedule: Q01DX003 (ip), vehicle: saline
  survivor count: 6 of 6
dose: 4.0 mg/kg/injection, schedule: Q01DX009 (ip), vehicle: saline
  survivor count: 6 of 6
dose: 4.32 mg/kg/injection, schedule: Q01DX001 (ip), vehicle: water
  T/C: 129 % of control
dose: 4.8 mg/kg/injection, schedule: Q04DX003 (ip), vehicle: water
  T/C: 144 % of control
dose: 5.0 mg/kg/injection, schedule: Q01DX009 (ip), vehicle: water
  survivor count: 8 of 8
dose: 6.0 mg/kg/injection, schedule: Q01DX009 (ip), vehicle: saline
  survivor count: 6 of 6
dose: 7.2 mg/kg/injection, schedule: Q01DX001 (ip), vehicle: water
  T/C: 143 % of control
dose: 8.0 mg/kg/injection, schedule: Q04DX003 (ip), vehicle: water
  T/C: 129 % of control

## CC(=O)NC(C(C)=O)C(C)=O.CC(=O)NC(C(C)=O)C(C)=O.[Cu]
dose: 50.0 mg/kg/injection, schedule: Q01DX001 (ip), vehicle: saline
  survivor count: 2 of 6
[1]
  survivor count: 0 of 6
[2]
  survivor count: 0 of 6
[3]
  survivor count: 0 of 6

## CCN1CCS/C1=C\C=C\C1=[N+](CC)CCS1
dose: 9.5 mg/kg/injection, schedule: Q01DX001 (ip), vehicle: other
  survivor count: 0 of 6
dose: 19.0 mg/kg/injection, schedule: Q01DX001 (ip), vehicle: other
  survivor count: 0 of 6
dose: 38.0 mg/kg/injection, schedule: Q01DX001 (ip), vehicle: other
  survivor count: 0 of 6

## COc1ccc2c(c1)N(CC(C)C[N+](C)(C)CCCCCCCCCC[N+](C)(C)CC(C)CN1c3ccccc3Sc3ccc(OC)cc31)c1ccccc1S2 (stereo unspecified)
dose: 100.0 mg/kg/injection, schedule: Q01DX009 (ip), vehicle: saline + alcohol
  survivor count: 0 of 6
dose: 200.0 mg/kg/injection, schedule: Q01DX009 (ip), vehicle: saline + alcohol
  survivor count: 0 of 6
dose: 400.0 mg/kg/injection, schedule: Q01DX009 (ip), vehicle: saline + alcohol
  survivor count: 0 of 6

## C[CH2][Pb]([CH2]C)([CH2]C)[O]C(=O)C=C1CCCC1
dose: 5.0 mg/kg/injection, schedule: Q01DX009 (ip), vehicle: saline with Tween-80
  survivor count: 5 of 6
dose: 10.0 mg/kg/injection, schedule: Q01DX009 (ip), vehicle: saline with Tween-80
  survivor count: 0 of 6
[4]
  survivor count: 0 of 6
[5]
  survivor count: 0 of 6
[6]
  survivor count: 0 of 6

## CCCCC(N)P(=O)(O)O (stereo unspecified)
dose: 100.0 mg/kg/injection, schedule: Q04DX002 (ip), vehicle: saline
  survivor count: 4 of 4
dose: 200.0 mg/kg/injection, schedule: Q04DX002 (ip), vehicle: saline
  survivor count: 2 of 4
dose: 400.0 mg/kg/injection, schedule: Q04DX002 (ip), vehicle: saline
  survivor count: 1 of 4

## CCOC(=O)c1ccc(N=CNc2ccc(C(=O)OCC)cc2)cc1
dose: 100.0 mg/kg/injection, schedule: Q01DX001 (ip), vehicle: other
  survivor count: 6 of 6
dose: 200.0 mg/kg/injection, schedule: Q01DX001 (ip), vehicle: other
  survivor count: 6 of 6
dose: 400.0 mg/kg/injection, schedule: Q01DX001 (ip), vehicle: other
  survivor count: 6 of 6

## O=[N+]([O-])CC1CCCCC1O (stereo unspecified)
[4]
  survivor count: 0 of 6
[5]
  survivor count: 0 of 6
[6]
  survivor count: 2 of 6

## COc1nc(Cl)nc2c1c(C#N)cn2C1OC(CO)C(O)C1O (stereo unspecified)
[7]
  survivor count: 6 of 6

## Cc1ccc2nc3c(nc2c1)-c1cccc2cccc-3c12
dose: 100.0 mg/kg/injection, schedule: Q01DX009 (ip), vehicle: saline with Tween-80
  survivor count: 6 of 6
[6]
  survivor count: 6 of 6

## Cc1ccc(CS)cc1
[8]
  survivor count: 4 of 6

## c1ccc(NCCOc2ccccc2)cc1
[8]
  survivor count: 1 of 3

## S=C(S)N1CCOCC1.[Cu+2]
dose: 200.0 mg/kg/injection, schedule: Q01DX001 (ip), vehicle: carboxymethylcellulose (CMC)
  survivor count: 0 of 4
dose: 400.0 mg/kg/injection, schedule: Q01DX001 (ip), vehicle: carboxymethylcellulose (CMC)
  survivor count: 0 of 4

## Cn1cnc([N+](=O)[O-])c1[Se]c1nc(N)nc2c1ncn2C1OC(CO)C(O)C1O (stereo unspecified)
dose: 100.0 mg/kg/injection, schedule: Q01DX005 (ip), vehicle: saline
  survivor count: 3 of 6
[7]
  survivor count: 0 of 6

## NCCc1ccc(NC(=O)c2ccc(C(=O)Nc3ccc(CCN)cc3)c([N+](=O)[O-])c2)cc1
dose: 50.0 mg/kg/injection, schedule: Q01DX015 (ip), vehicle: methylcellulose (MC)
  survivor count: 0 of 6
dose: 100.0 mg/kg/injection, schedule: Q01DX015 (ip), vehicle: methylcellulose (MC)
  survivor count: 0 of 6

## CCCCCCCCCCCCCCCCCC(=O)C(C)(C)C
dose: 100.0 mg/kg/injection, schedule: Q01DX001 (ip), vehicle: Klucel (hydroxypropylcellulose) (HPC)
  survivor count: 3 of 3

## CC(C)CC(NC(=O)OCc1ccccc1)C(=O)NC(Cc1ccccc1)C(=O)CCl (stereo unspecified)
[9]
  survivor count: 5 of 6
[10]
  survivor count: 4 of 6

## Cc1ccc(-n2c(=O)[nH]c3c(c2=O)C(c2ccc(Cl)cc2)C(C)(C)O3)cc1 (stereo unspecified)
dose: 25.0 mg/kg/injection, schedule: Q01DX001 (ip), vehicle: saline
  survivor count: 6 of 6
[1]
  survivor count: 6 of 6
[2]
  survivor count: 6 of 6
[3]
  survivor count: 2 of 6

## C=C(NC(=O)C(=C)NC(=O)c1csc(C2=NC3c4csc(n4)C4NC(=O)c5csc(n5)C(C(C)(O)C(C)O)NC(=O)C5CSC(=N5)/C(=C/C)NC(=O)C(C(C)O)NC(=O)c5csc(n5)C3(CC2)NC(=O)C(C)NC(=O)C(=C)NC(=O)C(C)NC(=O)C(C(C)CC)NC2C=Cc3c(C(C)O)cc(nc3C2O)C(=O)OC4C)n1)C(N)=O (stereo unspecified)
dose: 200.0 mg/kg/injection, schedule: Q04DX003 (ip), vehicle: saline
  T/C: 135 % of control
dose: 266.0 mg/kg/injection, schedule: Q01DX001 (ip), vehicle: saline
  T/C: 125 % of control
[3]
  T/C: 128 % of control
dose: 400.0 mg/kg/injection, schedule: Q04DX003 (ip), vehicle: saline
  T/C: 139 % of control
dose: 600.0 mg/kg/injection, schedule: Q01DX001 (ip), vehicle: saline
  T/C: 130 % of control
dose: 900.0 mg/kg/injection, schedule: Q01DX001 (ip), vehicle: saline
  T/C: 141 % of control

## CCN(CC)C(=O)C1CN2CCc3cc(OC)c(OC)cc3C2CC1OC(C)=O (stereo unspecified)
[9]
  survivor count: 2 of 4
[8]
  survivor count: 3 of 6
[10]
  survivor count: 2 of 4

## Cn1c(=S)sc2ccccc21
[4]
  survivor count: 0 of 3
[9]
  survivor count: 0 of 3
[10]
  survivor count: 0 of 3
